Article PMC2867455 (Journal of medicinal chemistry, 2010)

Key:
PFTase = target: T1, PFTase (Saccharomyces cerevisiae, UniProt P22007+P29703); test: PFTase in vitro continuous-fluorescence assay; type: biochemical
T1 sequence (P22007 1-431): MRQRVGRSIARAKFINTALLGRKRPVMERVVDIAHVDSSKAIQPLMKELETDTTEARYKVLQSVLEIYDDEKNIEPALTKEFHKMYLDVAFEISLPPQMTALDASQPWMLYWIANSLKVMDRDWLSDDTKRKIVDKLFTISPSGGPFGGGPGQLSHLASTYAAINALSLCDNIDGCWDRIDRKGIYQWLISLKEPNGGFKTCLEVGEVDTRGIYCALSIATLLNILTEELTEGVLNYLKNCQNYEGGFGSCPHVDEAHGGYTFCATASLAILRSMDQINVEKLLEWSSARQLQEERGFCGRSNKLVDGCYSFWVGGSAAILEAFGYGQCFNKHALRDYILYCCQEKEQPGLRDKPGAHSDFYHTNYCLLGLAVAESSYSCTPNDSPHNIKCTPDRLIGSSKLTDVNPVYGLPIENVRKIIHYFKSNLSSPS
T1 sequence (P29703 1-316): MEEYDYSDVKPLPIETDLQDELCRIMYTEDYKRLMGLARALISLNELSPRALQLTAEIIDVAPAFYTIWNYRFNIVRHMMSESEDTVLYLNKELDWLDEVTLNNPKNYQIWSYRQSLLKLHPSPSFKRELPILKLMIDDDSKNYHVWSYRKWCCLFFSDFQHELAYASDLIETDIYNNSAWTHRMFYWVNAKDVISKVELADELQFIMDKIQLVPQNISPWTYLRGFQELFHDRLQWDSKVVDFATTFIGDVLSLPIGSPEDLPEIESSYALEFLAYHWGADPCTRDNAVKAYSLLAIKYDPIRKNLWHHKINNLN

[1] = active metabolite at therapeutic doses of Loratadine; cited from earlier work

Clc1ccc2c(c1)CCc1cccnc1C2=C1CCNCC1 [Desloratadine]
PFTase inhibition (in words) (PFTase): not an inhibitor of PFTase
plasma concentration [1]: approximately 300 nM
